These results are taken from publication PMC7819943, “Rice protein-binding microarrays: a tool to detect cis-acting elements near promoter regions in rice”.

Chains of the proteins cited; added tags and fusions are not shown.
UniProt Q0JBA9, entry or part of it: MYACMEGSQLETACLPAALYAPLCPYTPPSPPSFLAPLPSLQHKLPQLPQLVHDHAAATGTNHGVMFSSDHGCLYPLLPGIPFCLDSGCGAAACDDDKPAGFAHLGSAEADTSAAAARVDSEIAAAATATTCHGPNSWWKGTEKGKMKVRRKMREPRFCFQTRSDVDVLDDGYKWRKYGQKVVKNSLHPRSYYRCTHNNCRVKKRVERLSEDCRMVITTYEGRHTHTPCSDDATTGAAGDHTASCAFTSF

This is one part of the list.

This test concerns the target OsWRKY34 (Oryza sativa, UniProt Q0JBA9 1-250). Briefly: protein-binding microarray (RPBM); PBS, 2% BSA, 51.3 ng/ul salmon testes DNA, 50 uM zinc acetate, 200 nM TF, 25 C, 1 h; high values mean tight binding. The following applies: protein: recombinant; tags: N-terminal polyhistidine and DsRed monomer fusion (pET32a); label: CyDye5-dUTP incorporated in the synthesized complementary strand; 3' TTTTT single-stranded linker to array surface; dsDNA, one strand shown. The method, boiled down:
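Transcription factors were each fused at the N-terminus to a polyhistidine tag plus DsRed and expressed in E. coli BL21-CodonPlus before Ni–NTA purification. Binding to a double-stranded custom Agilent array was carried out with 200 nM protein at 25 °C for 1 h in PBS, 2% BSA, salmon testes DNA and 50 µM zinc acetate. The binding signal is per-feature fluorescence intensity, in arbitrary units, on an Axon 4000B scanner.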
In the case of “TCTGCATGGTATGTATAGGCATTTTCTTGAGACATTTTAACGGAGTCACCTAGTGCAG”, the binding signal is 8380 fluorescence intensity (a.u.).

On to “CAGCAGCAGCAGTAATTCCTCCGCTTCTTCTTCCTTGCTGCGGAGTCACCTAGTGCAG”, for which the binding signal is 8440 fluorescence intensity (a.u.).

Regarding “GTTTTGTACTCTTTCGTAACAGCCCTCAATGTCTTGGTATCGGAGTCACCTAGTGCAG”, the binding signal was 11600 fluorescence intensity (a.u.).

Regarding “CGTTGACCCCGCCACCCGCCGTGCACCACCCGCCGCCCACCGGAGTCACCTAGTGCAG”, the binding signal was 8410 fluorescence intensity (a.u.).

For the sequence “TTAATGTTCATTATGGTGTTTCTTAATTGCTTTTTGCTTTCGGAGTCACCTAGTGCAG”, the binding signal was 10500 fluorescence intensity (a.u.).

With “ATTAATTGGTCCACGCCTTTTCACGTGCCTCTTGCCGCACCGGAGTCACCTAGTGCAG”, the binding signal is 8040 fluorescence intensity (a.u.).

For “TATAATTTTGTGCTAATATGCATTTTCCTTGTTTTGTTTACGGAGTCACCTAGTGCAG”, the binding signal is 11300 fluorescence intensity (a.u.).

Take “TTTTCGCATGTTTCTTTTCTTTTTTTTTCTTTTCTTTTCCCGGAGTCACCTAGTGCAG”: the binding signal was 16600 fluorescence intensity (a.u.).

For “ATCGTAATGGATCTCCAATTCGGGGAGGAGGGAGGAATAACGGAGTCACCTAGTGCAG”, the binding signal was 9420 fluorescence intensity (a.u.).

For “AAACAAATGGTCAAACGTCGTTTAAAAGTCAACGGCGTCACGGAGTCACCTAGTGCAG”, the binding signal was 11000 fluorescence intensity (a.u.).

For “TTTGTGAGAGAGACTAAAATATATTCCTACCATCTCAAACCGGAGTCACCTAGTGCAG”, the binding signal was 8260 fluorescence intensity (a.u.).

Regarding “ATAGATGACGCCGTTAACTTTTTCTCACATGTTTAACCATCGGAGTCACCTAGTGCAG”, the binding signal was 10200 fluorescence intensity (a.u.).

For “TACATTCTTTATGTTTTGCTCCCATATTGCTGATTTCACTCGGAGTCACCTAGTGCAG”, the binding signal was 8600 fluorescence intensity (a.u.).

As to “GCCACGCGCACACACGCCCTGATCGCGCTCCCGGCATCTACGGAGTCACCTAGTGCAG”, the binding signal is 8260 fluorescence intensity (a.u.).

“CGACCACCACCGCTGCCGACCCATGTCGCCGTTCGCGGCCCGGAGTCACCTAGTGCAG”: the binding signal is 8700 fluorescence intensity (a.u.).

Regarding “CACCCACGAGACCACCACGTGCTTGACCACATGGGCCCACCGGAGTCACCTAGTGCAG”, the binding signal is 8370 fluorescence intensity (a.u.).

As to “AAAAAGTCAACGGTGTCAAATATTTTGAAACGGAGGAAGTCGGAGTCACCTAGTGCAG”, the binding signal was 8560 fluorescence intensity (a.u.).

For “TGCAACGAACCTGCACTGCATTGTCCCTTTCATCATCACGCGGAGTCACCTAGTGCAG”, the binding signal was 8370 fluorescence intensity (a.u.).

As for “CTCTCCTCTCCTCTCCTCGCGACAGCGCCGCCCCAAAAACCGGAGTCACCTAGTGCAG”, the binding signal is 8280 fluorescence intensity (a.u.).

For “TTGGATGCTCCGTTTCTCCTCCCTGCAGCGCCATGCGCACCGGAGTCACCTAGTGCAG”, the binding signal is 8150 fluorescence intensity (a.u.).

On to “TGAAATCGAACTGCCTGGTTGGTGGAAATGGTTGACCAAGCGGAGTCACCTAGTGCAG”, for which the binding signal was 8290 fluorescence intensity (a.u.).

Regarding “CGGCCCGCAAATTCTAGTCTTGTTATGGGCCGTCACAGATCGGAGTCACCTAGTGCAG”, the binding signal was 8050 fluorescence intensity (a.u.).

As to “TCTCAGCGGCCCGAACCTGTATACATCGCCGGCGTCTTGTCGGAGTCACCTAGTGCAG”, the binding signal was 9160 fluorescence intensity (a.u.).

As to “TAAAATTCATCGGACTCCATATGTGCAGGTGGTGGTGGGGCGGAGTCACCTAGTGCAG”, the binding signal is 10400 fluorescence intensity (a.u.).

Turning to “TCTGGACCGTCCATCCGCGCGCTTCTCTTCCTCCACCGCACGGAGTCACCTAGTGCAG”, the binding signal is 10100 fluorescence intensity (a.u.).

Regarding “TATCTCTCTCCCGCTGACAACCCGGTCACACCGAACCAACCGGAGTCACCTAGTGCAG”, the binding signal is 8990 fluorescence intensity (a.u.).

Regarding “AAATGGGTTTATGGGTTGACCCACTTACATCATCTCTAGACGGAGTCACCTAGTGCAG”, the binding signal is 8660 fluorescence intensity (a.u.).

As for “TCTCCCTCACTCGCTTTTGACTCGAACCAGTCCGCTCTCTCGGAGTCACCTAGTGCAG”, the binding signal was 10800 fluorescence intensity (a.u.).

On to “ACACCTTCATCCGTCCATCATCTCTGCGCCGCCGCCACCGCGGAGTCACCTAGTGCAG”, for which the binding signal was 8700 fluorescence intensity (a.u.).

Regarding “TGTGTTTGTGTTGTGTGTGTGAGAGAGAGAGGCGAAGAAACGGAGTCACCTAGTGCAG”, the binding signal was 9540 fluorescence intensity (a.u.).

For the sequence “GCTTCTACTCCTTTTCAACCTGTCTTTGTCTCCCTCCGCCCGGAGTCACCTAGTGCAG”, the binding signal was 8750 fluorescence intensity (a.u.).

With “CAATTCTCCAACTTCCACGTGGGCCCCAGAACAAAAATCCCGGAGTCACCTAGTGCAG”, the binding signal is 8830 fluorescence intensity (a.u.).

As for “TTACACCCTTATTTTTTACGCGCACGCTTCCCGAACCGTACGGAGTCACCTAGTGCAG”, the binding signal is 8280 fluorescence intensity (a.u.).

“GGTGTAGGTGGGTATAATAAATGTATGAATTACTTCGAATCGGAGTCACCTAGTGCAG”: the binding signal is 11600 fluorescence intensity (a.u.).

For “AGAGATGGTTTGCTGTTAATTTTGCAATGTGGATGGCTGTCGGAGTCACCTAGTGCAG”, the binding signal is 8210 fluorescence intensity (a.u.).

On to “AATTTTGTATATTCGTTTGCACGTTTTTAAAACTCCTAAACGGAGTCACCTAGTGCAG”, for which the binding signal is 65500 fluorescence intensity (a.u.).

With “TTCTTCCCTTTCCATTTCTCCCTTTTCCTACCTCGCCTCGCGGAGTCACCTAGTGCAG”, the binding signal is 8260 fluorescence intensity (a.u.).

Turning to “CACCTTGACTCAGCGTGGTTGACTCTAGTCAACTTGTCACCGGAGTCACCTAGTGCAG”, the binding signal was 10400 fluorescence intensity (a.u.).

Turning to “GGTTTTGACAATTGAGGGACACGTTCTATCTGGTTTTCCGCGGAGTCACCTAGTGCAG”, the binding signal was 8290 fluorescence intensity (a.u.).

As to “AGGTTTCTTTTGGGCATAGTTCTTGCTTTTACCTTTTTTTCGGAGTCACCTAGTGCAG”, the binding signal was 14100 fluorescence intensity (a.u.).

With “TCTACTCCCTCCGTTGCAGGTTATAAGATGTTTTGACTTTCGGAGTCACCTAGTGCAG”, the binding signal is 9240 fluorescence intensity (a.u.).

For “CAGGAGTACTATCTTTTATACCGGTCAACGCACAGCTTACCGGAGTCACCTAGTGCAG”, the binding signal is 9170 fluorescence intensity (a.u.).
